# Screen size: about 360,000 compounds; about 9,100 (2.5%) were called active. The shares of active, inactive and inconclusive entries below differ from those in the screen. Cut-off read from the data, not from the text of the source: active = max response below about -50%; inconclusive = no clear call, values can overlap the other calls; inactive = above that.
# Amino acid sequences for entries named in this document (tags omitted).
# UniProt P35462, whole entry, looked up: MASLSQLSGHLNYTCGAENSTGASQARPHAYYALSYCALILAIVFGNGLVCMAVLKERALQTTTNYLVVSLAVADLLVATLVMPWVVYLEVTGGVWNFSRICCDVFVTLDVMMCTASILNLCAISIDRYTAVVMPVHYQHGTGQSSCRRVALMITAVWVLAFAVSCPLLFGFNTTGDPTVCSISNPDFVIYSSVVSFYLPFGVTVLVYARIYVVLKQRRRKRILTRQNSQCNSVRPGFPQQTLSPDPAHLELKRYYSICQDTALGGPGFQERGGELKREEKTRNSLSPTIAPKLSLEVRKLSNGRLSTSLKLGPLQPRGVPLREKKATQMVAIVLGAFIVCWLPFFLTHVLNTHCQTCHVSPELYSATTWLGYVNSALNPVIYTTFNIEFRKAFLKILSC
# Target: D(3) dopamine receptor (Homo sapiens) (UniProt P35462)
# Assay: qHTS of D3 Dopamine Receptor Antagonist: qHTS
# Details: D3R cells, DiscoveRx beta-arrestin luminescence, antagonist mode; hits give low values
# Method in brief: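 Cells expressing the human receptor were seeded at 1500 cells/well, incubated overnight at 37 degrees C in 5% CO2, then exposed to library compounds with dopamine controls for 90 minutes at 37 degrees C before luminescent detection.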
# % is set by controls: 0 for no effect and ±100 for the full control effect.
row,Structure (SMILES),"max response, negative = inhibition"
1,O=C(NCCc1ccccc1)c1ccc2nc(-c3ccco3)c(-c3ccco3)nc2c1,inconclusive: -46.7%
2,COC(=O)[C@@]12C[C@@H](CC(=O)N3CCSCC3)C(=O)N(Cc3ccco3)C1=CCC(C)(C)C2,inconclusive: -46.8%
3,O=C(CN1CCCC1)Nc1cccc(Cl)c1,inconclusive: -41.9%
4,COc1ccc(N2CCN(S(=O)(=O)CCNC(=O)c3ccc(Br)o3)CC2)cc1,inactive: 10.7%
5,CC1(C(=O)NCc2ccccc2)Cc2c(-c3cccc(C(F)(F)F)c3)ccnc2O1 (centres undefined),inconclusive: -46.4%
6,COc1cccc(C2=CC(=O)C[C@H](c3ccc(F)cc3)C2)c1,inconclusive: -47.7%
7,CCN(C(=O)COC(=O)CSc1ccc(C)cc1C)c1c(N)n(Cc2ccccc2)c(=O)[nH]c1=O,inactive: -13.4%
8,OCCC1CN(Cc2ccccc2OC2CCCC2)CCN1Cc1ccsc1 (centres undefined),inconclusive: -40%
9,Cc1ccc(CSc2nnc3c(n2)OC2(Nc4ccccc4-3)C(=O)Nc3ccc(F)cc32)cc1 (centres undefined),inconclusive: -39%
10,COc1cccc(C(c2c(N)[nH]c(=S)[nH]c2=O)c2c(N)[nH]c(=S)[nH]c2=O)c1,inconclusive: -40.9%
11,CCC(C)NC(=O)Cn1cnc2sc(C)c(S(=O)(=O)N3CCN(c4ccccc4OC)CC3)c2c1=O (centres undefined),inconclusive: -30.4%
12,N#CC(c1ccccc1)C(CC(=O)c1ccccc1)c1ccccc1 (centres undefined),inactive: 37.9%
13,O=C(c1ccc(CN2CCc3ccccc3C2)cc1)N1CCN(c2ccc(F)cc2)CC1,active: -65.3%
14,CCN1C(c2ccccc2)C(C)C(=O)C(C)C1c1ccccc1 (centres undefined),inconclusive: -39%
15,Cc1noc(C)c1CSc1nnc(-c2ccccc2F)n1CCc1ccccc1,inactive: 18.1%
16,CCOC(=O)C(CC)Sc1nnc(COc2ccc(C)cc2)n1-c1ccccc1 (centres undefined),inactive: 5.83%
17,CCOc1ccc2oc(-c3ccccc3)c(C(=O)N3CCN(CCO)CC3)c2c1,inactive: 8.8%
18,CCN1CCN(c2cc(C)c3cc(NC(=O)c4cc(OC)cc(OC)c4)ccc3n2)CC1,inconclusive: -36%
19,COc1ccccc1NS(=O)(=O)c1cc(N/C(=N\S(=O)(=O)c2ccccc2)c2ccc(F)cc2)ccc1Cl,inconclusive: -32.2%
20,COc1ccc(CCN2C(=O)CC(NCCc3ccc(S(N)(=O)=O)cc3)C2=O)cc1OC (centres undefined),inactive: -1.77%
21,Cn1cccc1/C=C1\SC(=S)N(NC(=O)c2ccccc2Cl)C1=O,inconclusive: -35.7%
22,O=c1[nH]c2c(s1)C(c1ccccc1)C1C3CCC(C3)C1S2 (centres undefined),inconclusive: -30.5%
23,CC(=O)Nc1ccc(OCCCN2CCC(C(O)(c3ccccc3)c3ccccc3)CC2)cc1,active: -104%
24,Cc1cc(NS(=O)(=O)c2ccc(NC(=O)c3oc4ccccc4c3C)cc2)no1,inconclusive: -33.9%
25,Cc1oc2cc(OCC(=O)O)ccc2c(=O)c1Oc1ccccc1,inactive: 13.2%
26,O=C(O)CCCc1ccc2c(c1)CCc1ccccc1-2,inconclusive: -33.3%
27,CCCCN(C)CCNC(=O)Cn1ncc2c(=O)oc3ccc(C)cc3c21,inconclusive: -32.6%

# Compounds shown so far containing two or more sulfur atoms (five):
row,Structure (SMILES),"max response, negative = inhibition"
10,COc1cccc(C(c2c(N)[nH]c(=S)[nH]c2=O)c2c(N)[nH]c(=S)[nH]c2=O)c1,inconclusive: -40.9%
11,CCC(C)NC(=O)Cn1cnc2sc(C)c(S(=O)(=O)N3CCN(c4ccccc4OC)CC3)c2c1=O (centres undefined),inconclusive: -30.4%
19,COc1ccccc1NS(=O)(=O)c1cc(N/C(=N\S(=O)(=O)c2ccccc2)c2ccc(F)cc2)ccc1Cl,inconclusive: -32.2%
21,Cn1cccc1/C=C1\SC(=S)N(NC(=O)c2ccccc2Cl)C1=O,inconclusive: -35.7%
22,O=c1[nH]c2c(s1)C(c1ccccc1)C1C3CCC(C3)C1S2 (centres undefined),inconclusive: -30.5%

# Carrying on:

row,Structure (SMILES),"max response, negative = inhibition"
1,CCOC(=O)c1cccc(NC(=O)c2cc3ccccc3o2)c1,inconclusive: -33%
2,O=C(C1=C[C@H](c2ccc(C(F)(F)F)cc2)C[C@H](OCc2ccc(CO)cc2)O1)N1CCN(Cc2ccc3c(c2)OCO3)CC1,inconclusive: -47%
3,COc1cc([N+](=O)[O-])c2nc(C=NNC(N)=S)ccc2c1,inconclusive: -37.5%
4,CN(C(=O)COC(=O)CSc1ccc([N+](=O)[O-])cc1)C1CCS(=O)(=O)C1 (centres undefined),inconclusive: -41.3%
5,Cc1ccc(Oc2cnc3ccccc3n2)cc1,inactive: 15.5%
6,O=[N+]([O-])c1ccc(N2CCN(c3ccccc3Cl)CC2)cn1,inactive: 2.01%
7,O=C(NCCNS(=O)(=O)c1ccc(Cl)cc1)c1cc(OCC(F)(F)F)ccc1OCC(F)(F)F,inactive: -14.4%
8,COC(=O)C1=C(C)NC(=O)CC1c1cc2c(cc1Br)OCO2 (centres undefined),inconclusive: -45.2%
9,O=C(COc1ccc2ccccc2c1Br)Nc1cccnc1,inactive: -18.8%
10,COc1ccc(CN2CCN(CC3CC3)CC2CCO)c(C)c1C (centres undefined),inconclusive: -49.7%
11,O=C(NNS(=O)(=O)c1ccccc1[N+](=O)[O-])c1ccncc1,inconclusive: -30.7%
12,Cc1cccc(-c2cc3nc4c(c(NCc5ccco5)n3n2)CCCC4)c1,inactive: -12.5%
13,O=C(/C=C/c1cccc(F)c1)NC1CCN(Cc2ccccc2)CC1,inconclusive: -46.6%
14,O=C(CCCC(=O)Nc1cccc(Br)c1)N/N=C/c1cc([N+](=O)[O-])ccc1O,inconclusive: -48.3%
15,O=C1CC(c2ccccc2)CC(O)=C1C=NCCN1CCN(C(=S)Nc2cccc(Cl)c2)CC1 (centres undefined),inconclusive: -40.4%
16,CN=C1CC(C)(C)CC(=O)/C1=C(/O)CCC(=O)NC,inconclusive: -32.8%
17,CCOC(=O)N1CCN(c2ncnc3c2[nH]c2ccc(OC)cc23)CC1,inactive: 9.64%
18,COc1ccc(C)cc1NC(=O)CN1CCN(c2ccc(F)cc2)CC1,inconclusive: -32.8%
19,Cn1nnc2cc(NC(=O)NCc3ccc4c(c3)OCO4)ccc21,active: -89.7%
20,CCc1nc2ccc(C(=O)Nc3cccc(OC)c3)cn2c1N(CCC(C)C)CCN(C)C,inconclusive: -32.2%
21,O=c1c(Cl)cc(Cl)nn1-c1ccccc1,inactive: -16.9%
22,Cc1ccc2c(c1)N(CCC(=O)NCc1cccs1)C(=O)C(C)O2 (centres undefined),inconclusive: -31%
23,CCCCN(Cc1ccccc1)C(=O)C1CCN(Cc2sccc2C)CC1,active: -66.6%
24,O=C(Cn1nnc(-c2ccc(CN3CCOCC3)cc2)n1)N(c1ccccc1)c1ccccc1,inactive: 0%
25,O=C(Cn1nc(-c2ccccc2)ccc1=O)Nc1ccc(NC(=O)c2ccccn2)cc1,inconclusive: -33.4%
26,CCN(CC)C(=O)c1c(Cl)nc(C)c([N+](=O)[O-])c1C,inactive: 9.16%
27,Cc1oc2c(C)c(O)ccc2c(=O)c1-c1ccc2ccccc2n1,inconclusive: -31.8%
